Data published in the supplement of paper PMC6331611.
Where “and” joins values, the source holds several entries; their conditions need not be identical. Equal entries are not always repeated. Structures can show the parent of a compound that is named as a salt. ± gives the standard deviation of the averaged measurements. The full ranking holds about 1,600 compounds; the median of “normalized growth (OD600, IQM-normalized) in LPM” is about 1, and the lowest 2% start at about 0.014. The list shows a part of the results.

What follows are compounds tested on Salmonella enterica serovar Typhimurium SL1344 (assay: normalized growth (OD600, IQM-normalized) in LPM (fraction of plate interquartile mean); higher = more bacterial growth (less inhibition)). Conditions: LPM pH 5.8; 10 µM; 16 h.

Compound	normalized growth
CN(C)CCOC(=O)C(c1ccccc1)C1(O)CCCC1 (stereo unspecified)	0.955 ± 0.15
C[C@H](N[C@@H](CCc1ccccc1)C(=O)O)C(=O)N1Cc2ccccc2C[C@H]1C(=O)O	1.02 ± 0.05
Nc1ccc(/N=N/c2ccccc2)c(N)n1	1.07 ± 0.03
OC(CCN1CCCCC1)(c1ccccc1)c1ccccc1	1.13 ± 0.04
CCCCC(=O)N(Cc1ccc(-c2ccccc2-c2nnn[nH]2)cc1)[C@H](C(=O)O)C(C)C	0.845 ± 0.034
CCN(CC)CCNC(=O)c1cc(Br)c(N)cc1OC	0.927 ± 0.028
CCOC(N)=O	0.916 ± 0.056
O=C1c2cccc(O)c2C(=O)c2c(O)cccc21	0.827 ± 0.05
CC(C)NNC(=O)c1ccncc1	0.978 ± 0.028
CSCC[C@H](NC(=O)[C@H](Cc1c[nH]c2ccccc12)NC(=O)CCNC(=O)OC(C)(C)C)C(=O)N[C@@H](CC(=O)O)C(=O)N[C@@H](Cc1ccccc1)C(N)=O	1.09 ± 0.026
CN(C)CCc1c[nH]c2ccc(CS(=O)(=O)N3CCCC3)cc12	0.986 ± 0.045
CN1CCN2c3ccccc3Cc3ccccc3C2C1 (stereo unspecified)	0.984 ± 0.042
O=C(O)CCC(=O)c1ccc(-c2ccccc2)cc1	1.042 ± 0.01
O=C1c2c(O)ccc(O)c2C(=O)c2c(NCCNCCO)ccc(NCCNCCO)c21	0.951 ± 0.044
C[C@H](CCC(=O)O)[C@H]1CC[C@H]2[C@@H]3C(=O)C[C@@H]4CC(=O)CC[C@]4(C)[C@H]3CC(=O)[C@]12C	0.981 and 1.07
CO[C@H]1C[C@H](O[C@@H]2/C(C)=C/C[C@@H]3C[C@@H](C[C@]4(CC[C@H](C)[C@@H](C5CCCCC5)O4)O3)OC(=O)[C@@H]3C=C(C)/C(=N/O)[C@H]4OC/C(=C\C=C\[C@@H]2C)[C@]43O)O[C@@H](C)[C@@H]1O	0.916 ± 0.01
CCOC(=O)C1=C(C)NC(C)=C(C(=O)OC)C1c1cccc(Cl)c1Cl (stereo unspecified)	0.935 ± 0.076
OC[C@H]1O[C@@H](O[C@H]2[C@H](O)[C@@H](O)C(O)O[C@@H]2CO)[C@H](O)[C@@H](O)[C@H]1O (stereo partly specified)	1.14 ± 0.057
COC(=O)/C=C/C(=O)OC	1.42 ± 0.16
CC(C)(C)NC[C@H](O)COc1cccc2c1CCCC2=O	0.9944 ± 0.0084
C[N+](C)(C)CCOC(N)=O	0.974 ± 0.025
O=C(NC(Cc1cc(=O)[nH]c2ccccc12)C(=O)O)c1ccc(Cl)cc1 (stereo unspecified)	0.938 ± 0.015
CCC(=O)OCC(=O)[C@@]1(OC(=O)CC)[C@@H](C)C[C@H]2[C@@H]3CCC4=CC(=O)C=C[C@]4(C)[C@@]3(F)[C@@H](O)C[C@@]21C	1.06 ± 0.047
CC1(C)O[C@@H]2C[C@H]3[C@@H]4C[C@H](F)C5=CC(=O)CC[C@]5(C)[C@H]4[C@@H](O)C[C@]3(C)[C@]2(C(=O)CO)O1	1.12 ± 0.017

Compound	normalized growth
NNC(=O)c1ccncc1	0.945 ± 0.06
COc1ccc(-c2ccc3cc(C(=O)O)ccc3c2)cc1C12CC3CC(CC(C3)C1)C2	0.812 ± 0.024
CCN1CCCC1CNC(=O)c1cc(S(N)(=O)=O)ccc1OC (stereo unspecified)	1.05 ± 0.042
Cc1cccc(N(C)C(=S)Oc2ccc3ccccc3c2)c1	1.7 ± 0.24
N[C@@H](COP(=O)(O)O)C(=O)O	1 ± 0.028
O=c1[nH]c(=O)n([C@H]2C[C@H](O)[C@@H](CO)O2)cc1I	1.05 ± 0.026
CCCCc1oc2ccccc2c1C(=O)c1cc(I)c(OCCN(CC)CC)c(I)c1	0.994 ± 0.039
CCOc1ccc(Cc2nccc3cc(OCC)c(OCC)cc23)cc1OCC	0.9951 ± 0.0073
O=C(Nc1ccc([N+](=O)[O-])cc1Cl)c1cc(Cl)ccc1O	0.984 ± 0.019
C#C[C@]1(O)CC[C@H]2[C@@H]3CCC4=Cc5oncc5C[C@]4(C)[C@H]3CC[C@@]21C	0.915 ± 0.011
Nc1ccc(S(=O)(=O)O)cc1.Nc1ccc(S(=O)(=O)O)cc1.[Zn]	1.1324 ± 0.0009
CC12CC3CC(C)(C1)CC(N)(C3)C2	0.879 ± 0.13
CN1C(C(=O)Nc2ccccn2)=C(O)c2sc(Cl)cc2S1(=O)=O	1 ± 0.014
CN1CCCN=C1/C=C/c1cccs1	0.951 ± 0.041
CCC[C@@H]1C[C@@H](C(=O)N[C@@H]([C@H]2O[C@H](SC)[C@H](O)[C@@H](O)[C@H]2O)[C@@H](C)O)N(C)C1	1.096 ± 0.0085
CC/C=C\C/C=C\C/C=C\C/C=C\C/C=C\C/C=C\CCC(=O)O	1.01 ± 0.011
CCCCC(CC)COc1ccc(-c2nc(-c3ccc(OC)cc3)nc(-c3ccc(OCC(CC)CCCC)cc3O)n2)c(O)c1 (stereo unspecified)	1.05 ± 0.035
O=c1cc[nH]c(=O)[nH]1	1.06 ± 0.04
CC(C)(C)CC(C)(C)c1ccc(OCCOCC[N+](C)(C)Cc2ccccc2)cc1	0.93 ± 0.039
Cn1nnc2c(C(N)=O)ncn2c1=O	0.923 ± 0.018
CCCCOc1ccc(C(=O)CCN2CCCCC2)cc1	1.05 ± 0.086
C=C1CC[C@H](O)C/C1=C/C=C1\CCC[C@]2(C)[C@@H]([C@H](C)/C=C/[C@H](C)C(C)C)CC[C@@H]12	1.04 ± 0.046
Nc1nc(N)c2nc(-c3ccccc3)c(N)nc2n1	0.857 ± 0.017
CC(C)(C)NC(=O)[C@H]1CC[C@H]2[C@@H]3CC[C@H]4NC(=O)C=C[C@]4(C)[C@H]3CC[C@]12C	1.11 ± 0.1

Compound	normalized growth
C[N+](C)(C)C[C@H](O)CC(=O)[O-]	1.04 ± 0.086
CC(CN(C)C)CN1c2ccccc2CCc2ccccc21 (stereo unspecified)	1.09 ± 0.02
OC(CCN1CCCC1)(c1ccccc1)C1CCCCC1 (stereo unspecified)	1.02 ± 0.019
CC(C)NCC(O)COc1cccc2[nH]ccc12 (stereo unspecified)	0.954 ± 0.05
CC1(C)O[C@@H]2C[C@H]3[C@@H]4C[C@H](F)C5=CC(=O)C=C[C@]5(C)[C@H]4[C@@H](O)C[C@]3(C)[C@]2(C(=O)CO)O1	0.921 ± 0.042
CN(Cc1cc(Br)cc(Br)c1N)C1CCCCC1	1.06 ± 0.025
C[C@H](CS)C(=O)N1CCC[C@H]1C(=O)O	0.976 ± 0.029
NCCc1ccc(O)c(O)c1	1.02 ± 0.056
CC[C@H](c1ccc(O)cc1)[C@@H](CC)c1ccc(O)cc1	1.13 ± 0.018
Cc1c(Nc2ncccc2C(=O)O)cccc1C(F)(F)F	1.04 ± 0.041
C[C@]12CCC(=O)C=C1CC[C@@H]1[C@@H]2[C@@H](O)C[C@@]2(C)[C@H]1CC[C@]2(O)C(=O)COP(=O)(O)O	0.979 ± 0.036
CC(=O)OCC(=O)[C@@]1(O)CC[C@H]2[C@@H]3CCC4=CC(=O)C=C[C@]4(C)[C@H]3[C@@H](O)C[C@@]21C	1.03 ± 0.054
CC#C[C@]1(O)CC[C@H]2[C@@H]3CCC4=CC(=O)CCC4=C3[C@@H](c3ccc(N(C)C)cc3)C[C@@]21C	1.02 ± 0.019
COc1ccc(Cl)cc1C(=O)NCCc1ccc(S(=O)(=O)NC(=O)NC2CCCCC2)cc1	0.824 ± 0.19
CCCCCCNC(=O)n1cc(F)c(=O)[nH]c1=O	0.007569 ± 7.1e-05
CCCCCCCC/C=C\CCCCCCCC(=O)O.NCCO	0.717 ± 0.33
COc1cc(NS(=O)(=O)c2ccc(N)cc2)ncn1	1.34 ± 0.16
CC1(C)O[C@@H]2C[C@H]3[C@@H]4C[C@H](F)C5=CC(=O)C=C[C@]5(C)[C@@]4(F)[C@@H](O)C[C@]3(C)[C@]2(C(=O)CO)O1	1.2 ± 0.11
Cc1cc(C)nc(NS(=O)(=O)c2ccc(N)cc2)n1	0.88 ± 0.14
CN(C(=O)CN(CCO)CC(=O)N(C)C(C)(C)Cc1ccccc1)C(C)(C)Cc1ccccc1	1.01 ± 0.028
COC(=O)N/N=C/c1c[n+]([O-])c2ccccc2[n+]1[O-]	0.55 ± 0.04
CC(C)[C@H](N)C(=O)OCCOCn1cnc2c(=O)nc(N)[nH]c21	1.13 ± 0.026
C[C@@H]1C/C=C/C=C/C=C/C=C/[C@H](O[C@@H]2O[C@H](C)[C@@H](O)[C@H](N)[C@@H]2O)C[C@@H]2O[C@](O)(C[C@@H](O)C[C@H]3O[C@@H]3/C=C/C(=O)O1)C[C@H](O)[C@H]2C(=O)O	1.06 ± 0.045
O=C(O)c1ccc[n+]([O-])c1	1.29 ± 0.093

Compound	normalized growth
NC[C@H]1O[C@H](O[C@H]2[C@H](O)[C@@H](O[C@H]3O[C@H](CO)[C@@H](O)[C@H](N)[C@H]3O)[C@H](N)C[C@@H]2N)[C@H](N)C[C@@H]1O	1.2 ± 0.05
CCOC(=O)Nc1nc2ccccc2[nH]1	0.857 ± 0.03
CC(=O)Nc1ccc(OC(=O)c2ccccc2O)cc1	1.02 ± 0.058
COc1cc2nc(N3CCN(C(=O)C4COc5ccccc5O4)CC3)nc(N)c2cc1OC (stereo unspecified)	0.796 ± 0.019
N[C@H]1CONC1=O	1.05 ± 0.036
CCCCC1C(=O)N(c2ccccc2)N(c2ccc(O)cc2)C1=O (stereo unspecified)	0.8937 ± 0.0078
O=C(CCBr)N1CCN(C(=O)CCBr)CC1	0.943 ± 0.05
CCN(CC)CCOCCOC(=O)C1(c2ccccc2)CCCC1	1.01 ± 0.041
CC#CCn1c(N2CCC[C@@H](N)C2)nc2c1c(=O)n(Cc1nc(C)c3ccccc3n1)c(=O)n2C	0.926 ± 0.058
CC(C)(CO)[C@@H](O)C(=O)NCCC(=O)O [PANTOTHENIC ACID(d) Na salt]	1.27 ± 0.039
CCN(CCCCOC(=O)c1ccc(OC)c(OC)c1)C(C)Cc1ccc(OC)cc1 (stereo unspecified)	1.03 ± 0.021
Cc1cc(C(C)(C)C)cc(C)c1CC1=NCCN1	0.973 ± 0.035
CCN(CC)C(=O)C1(c2ccccc2)CC1CN (stereo unspecified)	1.13 ± 0.043
CCCCCCOc1ccccc1C(N)=O	1.01 ± 0.048
CCN(CC)CCNC(=O)c1ccc(N)cc1	0.93 ± 0.051
NC[C@H](O)c1ccc(O)c(O)c1	0.942 ± 0.015
O=C(O)C1=C(CSc2nnnn2CS(=O)(=O)O)CS[C@@H]2[C@H](NC(=O)[C@H](O)c3ccccc3)C(=O)N12	1.01 ± 0.024
CC(C)[N+]1(C)[C@@H]2CC[C@H]1C[C@@H](OC(=O)C(CO)c1ccccc1)C2 (stereo partly specified)	0.9 ± 0.093
Cc1ccc(-c2cc(C(F)(F)F)nn2-c2ccc(S(N)(=O)=O)cc2)cc1	1.11 ± 0.02
Nc1ccc(S(=O)(=O)Nc2nccs2)cc1	1.03 ± 0.026
CN[C@H]1CC[C@@H](c2ccc(Cl)c(Cl)c2)c2ccccc21	1.02 ± 0.033
CC[C@H]1OC(=O)[C@H](C)[C@@H](O[C@H]2C[C@@](C)(OC)[C@@H](O)[C@H](C)O2)[C@H](C)[C@@H](O[C@@H]2O[C@H](C)C[C@H](N(C)C)[C@H]2O)[C@](C)(O)C[C@@H](C)CN(C)[C@H](C)[C@@H](O)[C@]1(C)O	0.566 ± 0.0065
COC(=O)[C@H](Cc1ccccc1)NC(=O)[C@@H](N)CC(=O)O	0.914 ± 0.051
CO/N=C(\C(=O)N[C@@H]1C(=O)N2C(C(=O)O)=C(COC(C)=O)CS[C@H]12)c1csc(N)n1	0.0479 ± 0.0089
